From paper doi:10.1101/2025.11.13.688325 come the findings set out here.

Chains of the proteins cited; added tags and fusions are not shown. Lines headed by an entry give the natural chain unless they say otherwise; changes in a name come on top. A line that says so, or that is headed by a name, gives the form on record, which may keep a tag or linker.
tropomyosin receptor kinase A (TrkA), N-terminally NanoLuc- or SnapTag-tagged (P04629-2, form named): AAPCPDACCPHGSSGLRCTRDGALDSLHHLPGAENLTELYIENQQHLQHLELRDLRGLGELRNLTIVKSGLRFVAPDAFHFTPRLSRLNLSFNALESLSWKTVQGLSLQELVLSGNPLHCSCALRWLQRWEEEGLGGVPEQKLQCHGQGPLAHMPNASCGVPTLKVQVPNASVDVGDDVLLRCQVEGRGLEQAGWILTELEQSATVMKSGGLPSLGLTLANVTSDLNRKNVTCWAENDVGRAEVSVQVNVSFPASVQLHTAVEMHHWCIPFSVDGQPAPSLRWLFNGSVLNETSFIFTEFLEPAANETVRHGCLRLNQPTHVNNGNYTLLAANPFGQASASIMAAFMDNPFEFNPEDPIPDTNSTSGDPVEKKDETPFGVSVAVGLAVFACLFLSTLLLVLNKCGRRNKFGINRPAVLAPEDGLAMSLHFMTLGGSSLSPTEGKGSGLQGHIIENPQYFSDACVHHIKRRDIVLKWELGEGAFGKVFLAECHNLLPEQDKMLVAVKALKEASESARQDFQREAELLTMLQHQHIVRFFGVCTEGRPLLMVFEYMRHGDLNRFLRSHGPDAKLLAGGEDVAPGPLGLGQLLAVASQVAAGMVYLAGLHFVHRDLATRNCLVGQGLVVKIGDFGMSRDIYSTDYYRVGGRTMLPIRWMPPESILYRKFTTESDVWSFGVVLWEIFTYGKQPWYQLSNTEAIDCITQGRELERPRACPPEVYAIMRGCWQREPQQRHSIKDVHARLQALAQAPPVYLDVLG
tropomyosin receptor kinase C (TrkC), N-terminally NanoLuc- or SnapTag-tagged (Q16288-3, form named): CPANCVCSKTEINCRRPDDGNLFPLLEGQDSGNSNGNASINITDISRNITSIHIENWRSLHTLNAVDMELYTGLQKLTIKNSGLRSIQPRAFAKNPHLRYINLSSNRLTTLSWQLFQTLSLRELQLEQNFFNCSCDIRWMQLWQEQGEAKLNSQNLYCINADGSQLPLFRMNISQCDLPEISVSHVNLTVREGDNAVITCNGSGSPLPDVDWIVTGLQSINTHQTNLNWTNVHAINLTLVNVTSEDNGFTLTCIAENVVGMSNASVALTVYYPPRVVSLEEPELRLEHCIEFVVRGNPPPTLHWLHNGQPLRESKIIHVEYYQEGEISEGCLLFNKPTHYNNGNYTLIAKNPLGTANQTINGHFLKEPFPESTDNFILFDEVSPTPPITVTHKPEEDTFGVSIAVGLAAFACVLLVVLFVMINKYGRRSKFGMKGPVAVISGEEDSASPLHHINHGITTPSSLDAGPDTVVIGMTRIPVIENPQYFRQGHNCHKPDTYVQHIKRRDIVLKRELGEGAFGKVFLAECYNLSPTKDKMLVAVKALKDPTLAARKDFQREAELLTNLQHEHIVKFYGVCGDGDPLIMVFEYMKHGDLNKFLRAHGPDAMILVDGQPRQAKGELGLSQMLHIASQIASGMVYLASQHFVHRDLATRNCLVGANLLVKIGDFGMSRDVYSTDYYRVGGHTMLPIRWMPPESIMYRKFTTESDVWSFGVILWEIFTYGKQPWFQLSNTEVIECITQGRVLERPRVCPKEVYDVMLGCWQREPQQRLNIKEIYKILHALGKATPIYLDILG

No constants are given. Whether binding was seen depends on the method and setting. Binding seen in cells or lysates may run through a third protein. Some entries that bind do so weakly or less than the wild type.

For assay [1], the target named is tropomyosin receptor kinase A (TrkA), N-terminally NanoLuc- or SnapTag-tagged (human) (UniProt P04629). Kind of assay: FRET or BRET. A general note: Bioluminescence resonance energy transfer reports proximity on the nanometre scale.
In assay [2] the target is tropomyosin receptor kinase C (TrkC), N-terminally NanoLuc- or SnapTag-tagged (human) (UniProt Q16288). Description: FRET or BRET.

As to “tropomyosin receptor kinase A (TrkA), N-terminally NanoLuc- or SnapTag-tagged (from UniProt P04629-2 33-790)”, the binding result in assay [1] is reported as “binds”.

Take “tropomyosin receptor kinase C (TrkC), N-terminally NanoLuc- or SnapTag-tagged (from UniProt Q16288-3 32-825)”: the binding entry in assay [2] is listed as “binds”.
